This note sets out measurements from PubChem BioAssay AID2685 (National Center for Advancing Translational Sciences (NCATS), 2010).

This assay is described as follows: qHTS Assay for Lipid Storage Modulators in Drosophila S3 Cells.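 On cell number change: cells counted by Cell Tracker Red CMTPX staining in the red channel.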 The note with it: BODIPY lipid droplet fluorescence, 18-24 h; for cell number change: measured here: cell count max response, cells fed with added oleic acid. An outline of the steps: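 Drosophila S3 cells got compounds at several concentrations plus oleic acid (400 uM solution). Laser-scanning cytometry with 488 nm excitation read lipid droplets at 500-530 nm and cells at 575-640 nm. Percent activity was relative to 20 uM Triacsin C.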
(In qHTS, concentration-response curves come from the screen itself.)

Where [1] appears, read: measured here: cell number channel AC50, cells fed with added oleic acid.
The mark [2] stands for this setting: measured here: lipid fluorescence (Fed channel) AC50, cells fed with added oleic acid.

This is one part of the list. These are further read-outs of the screen, such as a control signal, another cell line or another target. No call is given for them. Most of these compounds were active or inconclusive in the main read-out, so they are no random draw. Words in brackets tell the shape of the fitted curve; partial curves, single points and poor fits give uncertain potencies.

On to `O=C(CC1C(=O)CCCC1=O)c1ccccc1`, for which the cell number change was found to be 41.8%. On the same count and under the same terms, as for `COCCOC(=O)c1c(C)oc2ccc(OCC=C(C)C)cc12`, the figure is 3.6%.

The term AC50 denotes the concentration at which the activity in the assay is half-maximal. High values mean activity only at high concentration, low ones activity at low concentration. With `COc1ccccc1N1CCN(C(=O)c2cccc(Oc3ccccc3)c2)CC1`, the cell number change was found to be 30.5%. For the same compound, the AC50 under setting [1] is 29.1 µM [rising, single point]. The half-maximal activity concentration (AC50) under setting [2] was 29.1 µM [rising, single point]. For `CCC1(c2ccccc2)NC(=O)N(CC(=O)Nc2cc(Cl)ccc2N2CCN(C)CC2)C1=O` (configuration not stated), the cell number change came to 13.5%. Further, the half-maximal activity concentration (AC50) under setting [1] is 0.116 µM [falling, full curve, poor fit]. Moreover, the AC50 under setting [2] is 23.1 µM [rising, single point].

Take `Cc1ccc(NC(=O)C(=O)N2CCCC2)cc1Cl`: under setting [2], the AC50 is 29.1 µM [rising, single point]. With `CCOCCn1c(N2CCN(c3ccc(OC)cc3)CC2)nc2c1c(=O)n(C)c(=O)n2C`, the cell number change was -7.91%. Besides, the half-maximal activity concentration (AC50) under setting [1] was 0.092 µM [rising, full curve, poor fit]. Consider `O=C(CN1CCOCC1)Nc1nc(-c2ccc3c(c2)CCN3S(=O)(=O)c2ccccc2)cs1`, for which the cell number change is -35.4%. Also, the concentration at half-maximal activity (AC50) under setting [1] is 7.31 µM [falling, partial curve].

`S=C(Nc1cc(Cl)cc(Cl)c1)N1CCN(c2ccccn2)CC1`: the cell number change was determined as 15.3%. In addition, the AC50 under setting [2] was 23.1 µM [rising, partial curve]. For `CNC(=O)Nc1ccc2nc(C)oc2c1`, the cell number change is -5.42%.

As to `Oc1ccc(-c2csc(Nc3ccccn3)n2)c(O)c1`, the cell number change was -58.8%. Further, the AC50 under setting [1] is 13 µM [falling, partial curve]. Regarding `Cc1csc(=O)n1CCC(=O)OCC(=O)c1c(N)n(CC(C)C)c(=O)n(C)c1=O`, the concentration at half-maximal activity (AC50) under setting [1] is 2.06 µM [rising, partial curve, poor fit]. In the case of `COc1ccccc1NC(=O)CSc1nc(SC)ns1`, the cell number change was found to be 20.8%. Besides, the AC50 under setting [2] was 0.259 µM [rising, partial curve]. For `OCCc1c[nH]c2cc(F)ccc12`, the cell number change stood at 34.3%. For the same compound, the concentration at half-maximal activity (AC50) under setting [2] is 0.651 µM [rising, partial curve].

Take `CCN(CC)C(=O)Cn1nnc(-c2ccc(C)o2)n1`: the cell number change stood at 0.068%. Under setting [2], the AC50 is 1.03 µM [falling, full curve, poor fit]. On to `Cc1nn(C(C)C(=O)NC2CC2)c(=O)c2nn(-c3ccccc3)c(C)c12` (configuration not stated), for which the concentration at half-maximal activity (AC50) under setting [2] is 29.1 µM [rising, single point].

For the compound `O=C(Nc1cccc(F)c1)C1CC(=O)N(c2ccc(Cl)cc2)C1` (configuration not stated), the concentration at half-maximal activity (AC50) under setting [2] was 3.26 µM [falling, full curve]. In the case of `O=C(c1cc(COc2ccc(F)cc2Cl)on1)N1CCN(C2CCCC2)CC1`, the cell number change was determined as 15.5%. For the same compound, under setting [1], the AC50 was 3.26 µM [rising, partial curve, poor fit]. For the same compound, under setting [2], the concentration at half-maximal activity (AC50) was 2.91 µM [rising, partial curve, poor fit]. For `O=C(CSc1ncccc1C(=O)O)Nc1ccc2c(c1)OCCO2`, the cell number change is -0.427%. The concentration at half-maximal activity (AC50) under setting [2] is 32.6 µM [rising, single point]. `Cc1ccc(S(=O)(=O)N2CCCCC2)cc1NC(=O)c1ccc2ccccc2n1`: the concentration at half-maximal activity (AC50) under setting [2] is 3.66 µM [falling, partial curve]. Take `O=c1c2ccccc2c(C=Nc2ccccc2O)c(O)n1-c1nccs1`: the cell number change was determined as 39.8%. For the same compound, the half-maximal activity concentration (AC50) under setting [1] was 10.3 µM [rising, partial curve, poor fit]. Further, the AC50 under setting [2] was 29.1 µM [falling, single point]. For the compound `COc1ccc(C)cc1S(=O)(=O)NC(C)C(=O)Nc1ccc2c(c1)OCO2` (configuration not stated), the cell number change is -6.41%. On to `O=C(Nc1nc2ccc(F)cc2s1)c1ccccn1`, for which the cell number change is -10.1%. Further, the AC50 under setting [2] was 3.26 µM [rising, full curve]. As to `CCS(=O)(=O)N1CCCC(C(=O)NCc2ccccc2Cl)C1` (configuration not stated), under setting [2], the AC50 is 0.58 µM [falling, single point]. With `Cc1ccc(C(=O)NCCNC(=O)COc2ccccc2Cl)cn1`, the cell number change was determined as 18.9%. Besides, the concentration at half-maximal activity (AC50) under setting [2] was 0.206 µM [rising, single point]. For `COc1ccc(N2CC(C(=O)N[C@H](C(=O)NC(C)c3ccccc3)C(C)C)CC2=O)cc1` (some centres not stated), under setting [2], the concentration at half-maximal activity (AC50) was 0.092 µM [rising, full curve, poor fit]. On the same count and under the same terms, as for `CC12C(=O)N(n3cnnc3)C(=O)C1C1C=CC2C1` (configuration not stated), the figure is 5.8 µM [falling, partial curve, poor fit]. For the compound `CCN(c1ccccc1)S(=O)(=O)c1ccc(N2CCN(c3ccccc3O)CC2)nc1`, the cell number change is -31.6%. In addition, the half-maximal activity concentration (AC50) under setting [1] is 29.1 µM [falling, single point]. In addition, the AC50 under setting [2] is 11.6 µM [falling, partial curve]. As to `CC(=O)NC1=NN(C(C)=O)C(c2ccc(C(C)C)cc2)S1` (configuration not stated), the cell number change was 15.9%. Also, under setting [2], the AC50 was 5.8 µM [rising, partial curve]. For `CC(C)c1ccccc1NC(=O)Nc1ccc2c(c1)OCO2`, the cell number change stood at 8.58%. Further, the AC50 under setting [2] is 25.9 µM [rising, single point]. As for `Nc1ccc2c(C(F)(F)F)cc(=O)oc2c1`, the cell number change was -8.55%. The half-maximal activity concentration (AC50) under setting [2] is 0.146 µM [falling, full curve, poor fit]. Turning to `COC(=O)Cc1ccc(NC(=O)c2ccccc2Cl)cc1`, the cell number change is 18.8%. For the same compound, the AC50 under setting [2] is 0.103 µM [rising, full curve, poor fit].

On to `Cc1cc2oc(=O)cc(CN3CCOCC3)c2cc1C(C)C`, for which the cell number change turned out to be 0.427%. For the same compound, the AC50 under setting [2] was 0.651 µM [falling, single point]. `Cc1cccc(NC(=O)Cn2c(=O)n(Cc3ccco3)c(=N)c3c4c(sc32)COC(C)(C)C4)c1`: the cell number change was 93.1%. Besides, the AC50 under setting [1] is 29.1 µM [rising, single point]. Moreover, the AC50 under setting [2] was 29.1 µM [rising, partial curve]. Turning to `Cc1cccc(C)c1N(CC(=O)Nc1cccc(N(C)S(C)(=O)=O)c1)S(C)(=O)=O`, the cell number change was -6.36%. Also, the concentration at half-maximal activity (AC50) under setting [2] is 29.1 µM [rising, single point]. As to `Cc1cccc(N(CC(=O)N/N=C/c2ccc(OCC(=O)NCc3ccco3)cc2)S(C)(=O)=O)c1C`, the cell number change was 58.6%. The half-maximal activity concentration (AC50) under setting [1] was 4.11 µM [rising, partial curve]. Also, the AC50 under setting [2] is 1.64 µM [rising, partial curve].

Regarding `O=c1[nH]c(CN2CCN(c3ccccc3)CC2)nc2scc(-c3ccccc3)c12`, the cell number change was determined as 11.8%. Still for that read-out and setting: the figure for `C=CCOC(=O)C1=C(C)N=C2SCCC(=O)N2C1c1ccc(OC(=O)c2ccco2)cc1` (configuration not stated) is -10.5%. Consider `Cc1cnc(NC(=O)Cc2ccccc2F)s1`, for which the cell number change was -3.78%. Further, under setting [2], the AC50 is 29.1 µM [rising, single point]. With `Cc1cc(C2C(C#N)=C(N)SC(N)=C2C#N)c(C)s1`, the half-maximal activity concentration (AC50) is, setting by setting: under setting [1], 6.51 µM [rising, single point]; under setting [2], 6.51 µM [rising, single point]. For `c1ccc(CN2CCOCC2)cc1`, the cell number change was -17%. For the compound `C#CCOCCOCCOCCNc1nc(N2CCN(C(=O)CCCCCCCCCCNC(=O)[C@@H](CCSC)n3cc(CCO)nn3)CC2)nc(N2CCN(C(=O)CCCCCCCCCCNC(=O)[C@H](CCC(=O)O)n3cc(CCCCCN)nn3)CC2)n1`, the cell number change came to 2.44%. For the same compound, the AC50 under setting [2] was 6.51 µM [rising, single point]. For the compound `CCOC(=O)C(C)Sc1nnc2c3ccccc3n(C)c2n1` (configuration not stated), the cell number change is -15%. In addition, the AC50 under setting [2] was 29.1 µM [falling, partial curve, poor fit]. Consider `COc1cc(CCC(=O)OCC(=O)NCC2CCCCC2)cc(OC)c1OC`, for which, under setting [2], the AC50 was 0.82 µM [rising, full curve]. As to `CCc1ccc(N/C(=N/c2nc(C)cc(C)n2)NC(C)=O)cc1`, the cell number change was -0.734%. In addition, the concentration at half-maximal activity (AC50) under setting [2] is 0.092 µM [rising, full curve, poor fit]. Consider `C=CCOc1ccccc1/C=C/C(=O)O`, for which, under setting [2], the concentration at half-maximal activity (AC50) was 29.1 µM [rising, single point].

With `CCOC(=O)[C@@H]1[C@H]2COc3ccccc3[C@H]2N2C(=O)N(c3ccc(C)cc3)C(=O)[C@]12C`, the cell number change was -9.58%. As for `CCCCN(CCCC)S(=O)(=O)c1ccc(NC(=O)Cc2cccs2)cc1`, the cell number change is -9.8%. In addition, under setting [2], the concentration at half-maximal activity (AC50) is 0.146 µM [rising, full curve, poor fit]. Regarding `Cc1ccc(OCC(=O)O/N=C(\N)c2ccccn2)cc1C`, the cell number change was -1.92%. `Cc1ccc(N(CC(=O)N2CCCC2)S(C)(=O)=O)c(C)c1`: the cell number change came out at 12.2%. The AC50 under setting [2] was 0.517 µM [falling, single point].

As for `Cc1sc2ncnc(NCCc3ccc(S(N)(=O)=O)cc3)c2c1C`, the cell number change was -70.3%. In addition, the AC50 under setting [1] was 18.4 µM [falling, partial curve]. The AC50 under setting [2] is 1.64 µM [rising, single point]. As for `O=c1c(C=NCCCn2ccnc2)c(-c2ccccc2)[nH]n1-c1nc2ccccc2s1`, the concentration at half-maximal activity (AC50) was 6.51 µM [rising, single point] under setting [1] and 6.51 µM [rising, single point] under setting [2]. As to `COC(=O)c1ccccc1NC(=O)CNc1cc(OC)c(OC)cc1C`, the cell number change is -13.1%. Further, the AC50 under setting [2] is 14.6 µM [falling, single point]. Take `Nc1ccc(C(=O)OCC(=O)N2c3ccccc3Sc3ccccc32)cc1[N+](=O)[O-]`: the cell number change came out at 15.8%. The AC50 under setting [2] is 2.06 µM [rising, partial curve].

Take `Nc1ccc2sc(N)nc2c1`: the cell number change was 16.9%. Also, under setting [2], the AC50 was 29.1 µM [rising, single point]. Consider `NC(=O)N=Nc1c(O)[nH]c2ccc([N+](=O)[O-])cc12`, for which the cell number change is -50.6%. The AC50 under setting [1] was 29.1 µM [falling, single point]. For the same compound, the half-maximal activity concentration (AC50) under setting [2] is 29.1 µM [falling, single point].

Regarding `CC(C)NC(=O)c1ccc2c(c1)N(CC(=O)N1CCCCC1)C(=O)C(C)(C)O2`, the cell number change is -1.25%. The same measure, in the same setting: as for `CCC1=Nc2cc(C(=O)NCCCN3CCN(C)CC3)ccc2Sc2ccccc21`, the figure is 38.2%.

Consider `COc1ccc(NC(=O)c2c(C)nn(-c3ccccc3)c2Cl)cc1`, for which the cell number change is 5.11%. In addition, the half-maximal activity concentration (AC50) under setting [1] is 0.116 µM [rising, full curve, poor fit]. Also, under setting [2], the AC50 is 1.84 µM [rising, full curve]. For `CCCc1cc(=O)oc2cc(OCC(=O)NCCc3c[nH]c4ccccc34)ccc12`, the cell number change turned out to be 23.8%. In addition, the half-maximal activity concentration (AC50) under setting [2] is 16.4 µM [falling, partial curve, poor fit]. In the case of `CC(CCc1ccccc1)NC(=O)c1ccccc1F` (configuration not stated), the cell number change was -24.7%. Moreover, under setting [2], the half-maximal activity concentration (AC50) is 0.58 µM [rising, single point]. Regarding `Cc1cccc(NC(=O)c2oc3c(c2C)C(=O)CC(C)(C)C3)n1`, the cell number change is 200%. Besides, under setting [1], the AC50 was 23.1 µM [rising, single point]. For the same compound, the half-maximal activity concentration (AC50) under setting [2] is 6.51 µM [rising, single point].
